The target in this assay is Zn(II)Har, recombinant Porphyromonas gingivalis Har (heme associated regulator, Fur orthologue PGN_1503) (Porphyromonas gingivalis ATCC 33277) (UniProt B2RKX7). The assay is described as follows: SEC; both purified. On the technique in general: SEC sorts molecules by how far they enter the pores of the column.

Results are given in words; binding and its absence hold for the method and conditions named. Some binding calls cover weakened binding; strength is not graded here.

B1: Zn(II)Har, recombinant Porphyromonas gingivalis Har (heme associated regulator, Fur orthologue PGN_1503) (natural protein, Porphyromonas gingivalis ATCC 33277, UniProt B2RKX7 1-166, looked up)
chain: MIVTSLEDLRSRLRAYVSENGLRHTPERYSILEVAYNLKKIFTPDDLFDLTRENGLPVSLSTVYNTLTLLERCGIVLRLPSPETKYQYLMASFAEQCPLLFCTECAQFSTYYRRNVKSILADKDLRPPRFSYRQALICLYGICDKCRKKQSALKKAADKAAPKKKK
notes: Har (Fur family transcriptional regulator), P. gingivalis ATCC 33277, gene PGN_1503 (501 bp), full length; Factor Xa site (IEGR) immediately before the start of har; Measured mass of apo-Har 19157.46 Da fits the theoretical 19157.20 Da; also called PgHar; rHar; source: E. coli BL21(DE3), purified (GSTrap, on-column Factor Xa cleavage, cation exchange, size exclusion); not shown: GST, N-terminal, …
Consider B1, for which the binding entry is “binds”.

The values above are taken from paper PMC4222909, “The Porphyromonas gingivalis Ferric Uptake Regulator Orthologue Binds Hemin and Regulates Hemin-Responsive Biofilm Development” (PLoS ONE, 2014).
